Experimental findings from article PMC4669652 are described below.

These are yes or no findings as the source states them, for the method shown. Binding seen in cells or lysates may run through a third protein. Some binding calls cover weakened binding; strength is not graded here. For some of these results: Tags and fused reporters may be left off the sequences shown.

Test [1] addresses T1, SHP, endogenous in mouse liver (mouse (endogenous in mouse liver)) (UniProt Q62227).
T1 sequence: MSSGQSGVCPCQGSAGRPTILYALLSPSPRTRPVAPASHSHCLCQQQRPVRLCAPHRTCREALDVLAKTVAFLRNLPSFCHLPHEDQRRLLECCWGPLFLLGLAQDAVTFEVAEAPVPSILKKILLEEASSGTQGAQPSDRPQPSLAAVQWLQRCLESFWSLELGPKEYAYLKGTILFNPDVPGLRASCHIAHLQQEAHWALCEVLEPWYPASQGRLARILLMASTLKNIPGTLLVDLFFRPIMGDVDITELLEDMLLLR
Briefly: co-IP; endogenous proteins in liver nuclear extracts of mice fasted 12 h and then fed or fasted for 6 h; extracts in 50 mM Tris-HCl pH 8.0, 150 mM NaCl, 2 mM EDTA, 0.5 % NP40, 10 % glycerol.

Test [2] deals with T2, flag-SHP (small heterodimer partner, NR0B2), adenovirally expressed (UniProt Q15466).
T2 sequence: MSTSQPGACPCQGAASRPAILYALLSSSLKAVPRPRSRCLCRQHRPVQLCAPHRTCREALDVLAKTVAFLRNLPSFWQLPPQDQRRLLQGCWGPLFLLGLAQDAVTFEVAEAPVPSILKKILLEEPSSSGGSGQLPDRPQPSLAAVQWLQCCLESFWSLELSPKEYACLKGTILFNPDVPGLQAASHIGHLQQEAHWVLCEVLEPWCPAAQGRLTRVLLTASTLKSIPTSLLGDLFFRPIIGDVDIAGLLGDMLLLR
Briefly: co-IP; liver (nuclear) extracts of mice injected with adenovirus for SHP WT or T55A, 1 week later treated with vehicle or FGF19 for 2 h; extracts in 50 mM Tris-HCl pH 8.0, 150 mM NaCl, 2 mM EDTA, 0.5 % NP40, 10 % glycerol.

For test [3], the target named is T3, GST-SREBP-2 central domain fragment (amino acids 51-330) (UniProt Q12772).
T3 sequence: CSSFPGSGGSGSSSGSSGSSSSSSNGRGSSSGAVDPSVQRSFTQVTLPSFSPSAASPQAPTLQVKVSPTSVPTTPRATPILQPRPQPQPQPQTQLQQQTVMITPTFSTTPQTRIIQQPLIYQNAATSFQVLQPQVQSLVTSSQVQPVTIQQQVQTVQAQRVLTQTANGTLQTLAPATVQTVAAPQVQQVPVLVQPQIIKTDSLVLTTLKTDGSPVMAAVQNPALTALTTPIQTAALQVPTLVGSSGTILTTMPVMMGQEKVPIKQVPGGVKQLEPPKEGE
Nature of the test: pull-down; partially purified GST-fusion proteins incubated with the reciprocal protein synthesized by TNT; bound protein detected by immunoblot; only the target purified. On the technique in general: Immunoblotting shows a protein as a band on a membrane.

In test [4] the target is T4, GST-SREBP-2 (amino acids 1-480) (UniProt Q12772).
T4 sequence: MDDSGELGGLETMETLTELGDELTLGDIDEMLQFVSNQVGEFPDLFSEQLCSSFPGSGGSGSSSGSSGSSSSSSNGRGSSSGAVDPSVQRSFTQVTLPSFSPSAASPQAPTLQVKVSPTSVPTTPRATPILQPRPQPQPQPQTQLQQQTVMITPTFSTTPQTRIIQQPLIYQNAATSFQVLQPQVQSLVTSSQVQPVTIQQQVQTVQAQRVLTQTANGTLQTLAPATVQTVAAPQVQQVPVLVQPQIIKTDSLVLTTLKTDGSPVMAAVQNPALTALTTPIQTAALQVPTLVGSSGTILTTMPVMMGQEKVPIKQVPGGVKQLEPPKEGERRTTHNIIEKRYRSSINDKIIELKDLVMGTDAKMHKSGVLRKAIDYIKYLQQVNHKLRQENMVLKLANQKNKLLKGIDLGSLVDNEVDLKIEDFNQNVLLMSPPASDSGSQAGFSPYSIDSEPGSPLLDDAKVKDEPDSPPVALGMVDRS
The description is as above.

B1: SREBP-2, endogenous in mouse liver (protein, UniProt Q3U1N2 1-1130)
chain: MDESSELGVLETMETLTELGDELTLGDIDEMLQFVSNQVGEFPDLFSEQLCSSFPGGGSNGGSGNNSSGRGNNGGATDPAVQRSFSQVPLSTFSPSAASPQAPALQVKVSPTPPRATPVLQPRPQPQPQPPAQLQQQTVMITPTFSTAPQTRIIQQPLIYQNAATSFQVLQPQVQSLVTSPQVQPVTIQQQVQTVQAQRVLTQTANGTLQTLAPATVQTVAAPQVQQVPVLVQPQIIKTDSLVLTTLKTDGSPVMAAVQNPALTALTAPIQTAALQVPTLVGSNGTILTTMPVMMGQEKVPIKQVPGGVKQLDPPKEGERRTTHNIIEKRYRSSINDKIIELKDLVMGTDAKMHKSGVLRKAIDYIKYLQQVNHKLRQENMVLKLANQKNKLLKGIDLGSLVDSDVDLKIDDFNQNVLLMSPPASDSGSQAGFSPYSIDSEPGSPLLDDAKVKDEPDSPPVALGMVDRSRILLCVLTFLGLSFNPLTSLLQWGGAHNTDQHPYSGSGRSVLSLESGAGGWFDWMVPTLLLWLVNGVIVLSVFVKLLVHGEPVIRPHSRPSVTFWRHRKQADLDLAKGDFAAAAANLQTCLSVLGRALPTSRLDLACSLSWNVIRYSLQKLRLVRWLLKKVFQRWRATPATAAGFEDEAKSSARDAALAYHRLHQLHITGKLPAGSACSDVHMALCAVNLAECAEEKILPSTLIEIHLTAAMGLKTRCGGKLGFLASYFLNRAQSLCGPEHSTVPDSLRWLCHPLGQKFFMERSWSIKSAAKESLYCAQRSPADPIAQVHQAFCKNLLERAVESLVKPQAKKKAGDQEEESCEFSSALEYLKLLHSFVDSVGFVTSPFSSSSVLRSALGPDVICRWWTSAVTMAISWLQGDDAAVRSRFTEVERVPKALEVTESPLVKAVFYTCRAMHASLSGKADGQQNSFCHCERASGHLWSSLNVSGTTSDPSLNHVIQLFTCDLLLSLRTALWQKQASASQLLGETYHASGTELAGFQRDLGSLRRLAHSFRPAYRKVFLHEATVRLMAGASPTRTHQLLEHSLRRRPTQNTKHGEVDTWPGQRERATAILLACRHLPLSFLSSPGQRAVLLAEAARTLEKVGDRRSCSDCQQMIVKLGGGTAIAAS
As for B1, the binding result in test [1] and in test [2] was “binds” in each case.

B2: SHP synthesized by TNT (protein, UniProt Q15466 1-257)
chain: T2 sequence
Consider B2, for which the binding entry in test [3] and in test [4] was “binds” each time.
